Measurements from patent US8618097B2, “Pyrimidyl cyclopentanes as AKT protein kinase inhibitors” (Array Biopharma, Inc., priority 2007, dated 2013).
Some of these results come from one statement about several compounds together.

Amino acid sequences for entries named in this document (tags omitted). A change or cut given only in a name is not applied to a line headed by its entry.
UniProt P31749: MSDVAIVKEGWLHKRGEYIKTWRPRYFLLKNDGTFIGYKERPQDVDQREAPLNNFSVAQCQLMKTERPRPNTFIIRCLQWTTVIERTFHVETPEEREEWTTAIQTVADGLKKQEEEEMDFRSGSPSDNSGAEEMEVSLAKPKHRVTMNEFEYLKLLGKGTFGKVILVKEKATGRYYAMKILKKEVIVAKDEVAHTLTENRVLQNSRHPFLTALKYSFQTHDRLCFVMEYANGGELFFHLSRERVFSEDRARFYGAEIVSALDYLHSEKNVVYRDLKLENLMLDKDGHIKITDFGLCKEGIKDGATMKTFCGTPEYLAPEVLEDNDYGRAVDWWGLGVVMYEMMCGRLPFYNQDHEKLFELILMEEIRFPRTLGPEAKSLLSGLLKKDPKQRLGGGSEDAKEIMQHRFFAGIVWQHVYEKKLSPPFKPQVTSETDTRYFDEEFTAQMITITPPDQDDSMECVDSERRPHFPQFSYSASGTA

Biological target: full-length human recombinant active AKT-1 (Homo sapiens, UniProt P31749)
Assay: AKT-1 Kinase Assay (IMAP fluorescence polarization)
Type: biochemical
Settings: phosphorylation of fluorescently-labeled peptide (Crosstide) by AKT-1, fluorescent polarization, IMAP kit

| SMILES | IC50 [µM] |
| --- | --- |
| C[C@@H]1C[C@@H](F)c2ncnc(N3CCN(C(=O)[C@@H](c4ccc(Cl)cc4)[C@@H]4CCCN4)CC3)c21 [Example 1, (S)-2-(4-chlorophenyl)-1-(4-((5R,7R)-7-fluoro-5-methyl-6,7-dihydro-5H-cyclopenta[d]pyrimidin-4-yl)piperazin-1-yl)-2-((S)-pyrrolidin-2-yl)ethanone] | < 1 |
| C[C@@H]1C[C@H](F)c2ncnc(N3CCN(C(=O)[C@@H](c4ccc(Cl)cc4)[C@@H]4CCCN4)CC3)c21 [Example 2, (S)-2-(4-chlorophenyl)-1-(4-((5R,7S)-7-fluoro-5-methyl-6,7-dihydro-5H-cyclopenta[d]pyrimidin-4-yl)piperazin-1-yl)-2-((S)-pyrrolidin-2-yl)ethanone] | < 1 |
| C[C@@H]1C[C@@H](O)c2ncnc(N3CCN(C(=O)[C@@H](c4ccc(C(F)(F)F)c(F)c4)[C@@H]4CCCN4)CC3)c21 [Example 5, (S)-2-(3-fluoro-4-(trifluoromethyl)phenyl)-1-(4-((5R,7R)-7-hydroxy-5-methyl-6,7-dihydro-5H-cyclopenta[d]pyrimidin-4-yl)piperazin-1-yl)-2-((S)-pyrrolidin-2-yl)ethanone] | < 1 |
| C[C@@H]1C[C@@H](O)c2ncnc(N3CCN(C(=O)[C@@H](c4ccc(Cl)cc4)[C@@H]4CCCCN4C)CC3)c21 [Example 6, (S)-2-(4-chlorophenyl)-1-(4-((5R,7R)-7-hydroxy-5-methyl-6,7-dihydro-5H-cyclopenta[d]pyrimidin-4-yl)piperazin-1-yl)-2-((S)-1-methylpiperidin-2-yl)ethanone] | < 1 |
| C[C@@H]1C[C@@H](O)c2ncnc(N3CCN(C(=O)[C@@H](c4ccc(Cl)cc4)[C@@H]4CCCN4C)CC3)c21 [Example 7] | < 1 |
| CC(C)N1CCC[C@H]1[C@@H](C(=O)N1CCN(c2ncnc3c2[C@H](C)C[C@H]3O)CC1)c1ccc(Cl)cc1 [Example 8, (S)-2-(4-chlorophenyl)-1-(4-((5R,7R)-7-hydroxy-5-methyl-6,7-dihydro-5H-cyclopenta[d]pyrimidin-4-yl)piperazin-1-yl)-2-((S)-1-isopropylpyrrolidin-2-yl)ethanone] | < 1 |
| CC(C)CN1CCC[C@H]1[C@@H](C(=O)N1CCN(c2ncnc3c2[C@H](C)C[C@H]3O)CC1)c1ccc(Cl)cc1 [Example 9, (S)-2-(4-chlorophenyl)-1-(4-((5R,7R)-7-hydroxy-5-methyl-6,7-dihydro-5H-cyclopenta[d]pyrimidin-4-yl)piperazin-1-yl)-2-((S)-1-isobutylpyrrolidin-2-yl)ethanone] | < 1 |
| C[C@@H]1C[C@H](O)c2ncnc(N3CCN(C(=O)[C@@H](c4ccc(Cl)cc4)[C@@H]4CCCN4C)CC3)c21 [Example 10, (S)-2-(4-chlorophenyl)-1-(4-((5R,7S)-7-hydroxy-5-methyl-6,7-dihydro-5H-cyclopenta[d]pyrimidin-4-yl)piperazin-1-yl)-2-((S)-1-methylpyrrolidin-2-yl)ethanone] | < 1 |
| C[C@@H]1C[C@@H](O)c2ncnc(N3CCN(C(=O)[C@@H](c4ccc(Cl)cc4)[C@@H]4CCC(C)(C)N4C)CC3)c21 [Example 12, (S)-2-(4-chlorophenyl)-1-(4-((5R,7R)-7-hydroxy-5-methyl-6,7-dihydro-5H-cyclopenta[d]pyrimidin-4-yl)piperazin-1-yl)-2-((S)-1,5,5-trimethylpyrrolidin-2-yl)ethanone] | < 1 |
| C[C@@H]1C[C@@H](O)c2ncnc(N3CCN(C(=O)[C@@H](c4ccc(C5CC5)cc4)[C@@H]4CCCN4)CC3)c21 [Example 13, (S)-2-(4-cyclopropylphenyl)-1-(4-((5R,7R)-7-hydroxy-5-methyl-6,7-dihydro-5H-cyclopenta[d]pyrimidin-4-yl)piperazin-1-yl)-2-((S)-pyrrolidin-2-yl)ethanone] | < 1 |
| CCN1CCC[C@H]1[C@@H](C(=O)N1CCN(c2ncnc3c2[C@H](C)C[C@H]3O)CC1)c1ccc(Cl)cc1 [Example 14, (S)-2-(4-chlorophenyl)-2-((S)-1-ethylpyrrolidin-2-yl)-1-(4-((5R,7R)-7-hydroxy-5-methyl-6,7-dihydro-5H-cyclopenta[d]pyrimidin-4-yl)piperazin-1-yl)ethanone] | < 1 |
| C[C@@H]1C[C@@H](O)c2ncnc(N3CCN(C(=O)[C@@H](c4ccc(Cl)cc4)[C@@H]4CCCN4CC4CC4)CC3)c21 [Example 15, (S)-2-(4-chlorophenyl)-2-((S)-1-(cyclopropylmethyl)pyrrolidin-2-yl)-1-(4-((5R,7R)-7-hydroxy-5-methyl-6,7-dihydro-5H-cyclopenta[d]pyrimidin-4-yl)piperazin-1-yl)ethanone] | < 1 |
| C[C@@H]1C[C@@H](O)c2ncnc(N3CCN(C(=O)[C@@H](c4ccc(Cl)cc4)[C@@H]4CCCN4C4CCOCC4)CC3)c21 [Example 16, (S)-2-(4-chlorophenyl)-1-(4-((5R,7R)-7-hydroxy-5-methyl-6,7-dihydro-5H-cyclopenta[d]pyrimidin-4-yl)piperazin-1-yl)-2-((S)-1-(tetrahydro-2H-pyran-4-yl)pyrrolidin-2-yl)ethanone] | < 1 |
| C[C@@H]1C[C@@H](O)c2ncnc(N3CCN(C(=O)[C@@H](c4ccc(Cl)cc4)[C@@H]4CCCN4CCO)CC3)c21 [Example 17, (S)-2-(4-chlorophenyl)-1-(4-((5R,7R)-7-hydroxy-5-methyl-6,7-dihydro-5H-cyclopenta[d]pyrimidin-4-yl)piperazin-1-yl)-2-((S)-1-(2-hydroxyethyl)pyrrolidin-2-yl)ethanone] | < 1 |
| C[C@@H]1C[C@@H](O)c2ncnc(N3CCN(C(=O)[C@@H](c4ccc(Cl)cc4)[C@@H]4CCC(C)(C)N4)CC3)c21 [Example 18, (S)-2-(4-chlorophenyl)-2-((S)-5,5-dimethylpyrrolidin-2-yl)-1-(4-((5R,7R)-7-hydroxy-5-methyl-6,7-dihydro-5H-cyclopenta[d]pyrimidin-4-yl)piperazin-1-yl)ethanone] | < 1 |
| C[C@@H]1C[C@@H](O)c2ncnc(N3CCN(C(=O)[C@@H](c4ccc(Cl)cc4)[C@@H]4CCCN4CC(C)(C)O)CC3)c21 [Example 19, (S)-2-(4-chlorophenyl)-2-((S)-1-(2-hydroxy-2-methylpropyl)pyrrolidin-2-yl)-1-(4-((5R,7R)-7-hydroxy-5-methyl-6,7-dihydro-5H-cyclopenta[d]pyrimidin-4-yl)piperazin-1-yl)ethanone] | < 1 |
| C[C@@H]1C[C@@H](O)c2ncnc(N3CCN(C(=O)[C@@H](c4ccc(Cl)cc4)[C@@H]4CCCN4CCCO)CC3)c21 [Example 20, (S)-2-(4-chlorophenyl)-1-(4-((5R,7R)-7-hydroxy-5-methyl-6,7-dihydro-5H-cyclopenta[d]pyrimidin-4-yl)piperazin-1-yl)-2-((S)-1-(3-hydroxypropyl)pyrrolidin-2-yl)ethanone] | < 1 |
| C[C@@H]1C[C@@H](O)c2ncnc(N3CCN(C(=O)[C@@H](c4ccc(C5CC5)cc4)[C@@H]4CCCN4C)CC3)c21 [Example 21, (S)-2-(4-cyclopropylphenyl)-1-(4-((5R,7R)-7-hydroxy-5-methyl-6,7-dihydro-5H-cyclopenta[d]pyrimidin-4-yl)piperazin-1-yl)-2-((S)-1-methylpyrrolidin-2-yl)ethanone] | < 1 |
| CC(C)N1CCC[C@H]1[C@@H](C(=O)N1CCN(c2ncnc3c2[C@H](C)C[C@H]3O)CC1)c1ccc(C2CC2)cc1 [Example 22, (S)-2-(4-cyclopropylphenyl)-1-(4-((5R,7R)-7-hydroxy-5-methyl-6,7-dihydro-5H-cyclopenta[d]pyrimidin-4-yl)piperazin-1-yl)-2-((S)-1-isopropylpyrrolidin-2-yl)ethanone] | < 1 |
| CCN1[C@H]([C@@H](C(=O)N2CCN(c3ncnc4c3[C@H](C)C[C@H]4O)CC2)c2ccc(Cl)cc2)CCC1(C)C [Example 23, (S)-2-(4-chlorophenyl)-2-((S)-1-ethyl-5,5-dimethylpyrrolidin-2-yl)-1-(4-((5R,7R)-7-hydroxy-5-methyl-6,7-dihydro-5H-cyclopenta[d]pyrimidin-4-yl)piperazin-1-yl)ethanone] | < 1 |
| C[C@@H]1C[C@H](O)c2ncnc(N3CCN(C(=O)[C@@H](c4ccc(Cl)cc4)[C@@H]4CCC(C)(C)N4)CC3)c21 [Example 24, (S)-2-(4-chlorophenyl)-2-((S)-5,5-dimethylpyrrolidin-2-yl)-1-(4-((5R,7S)-7-hydroxy-5-methyl-6,7-dihydro-5H-cyclopenta[d]pyrimidin-4-yl)piperazin-1-yl)ethanone] | < 1 |
| COCCN1[C@H]([C@@H](C(=O)N2CCN(c3ncnc4c3[C@H](C)C[C@H]4O)CC2)c2ccc(Cl)cc2)CCC1(C)C [Example 25, (S)-2-(4-chlorophenyl)-1-(4-((5R,7R)-7-hydroxy-5-methyl-6,7-dihydro-5H-cyclopenta[d]pyrimidin-4-yl)piperazin-1-yl)-2-((S)-1-(2-methoxyethyl)-5,5-dimethylpyrrolidin-2-yl)ethanone] | < 1 |
| COCCN1CCC[C@H]1[C@@H](C(=O)N1CCN(c2ncnc3c2[C@H](C)C[C@H]3O)CC1)c1ccc(Cl)cc1 [Example 26, (S)-2-(4-chlorophenyl)-1-(4-((5R,7R)-7-hydroxy-5-methyl-6,7-dihydro-5H-cyclopenta[d]pyrimidin-4-yl)piperazin-1-yl)-2-((S)-1-(2-methoxyethyl)pyrrolidin-2-yl)ethanone] | < 1 |
| C[C@@H]1C[C@@H](O)c2ncnc(N3CCN(C(=O)[C@@H](c4ccc(Cl)c(F)c4)[C@@H]4CCCN4C)CC3)c21 [Example 27, (S)-2-(4-chloro-3-fluorophenyl)-1-(4-((5R,7R)-7-hydroxy-5-methyl-6,7-dihydro-5H-cyclopenta[d]pyrimidin-4-yl)piperazin-1-yl)-2-((S)-1-methylpyrrolidin-2-yl)ethanone] | < 1 |
| C[C@@H]1C[C@@H](O)c2ncnc(N3CCN(C(=O)[C@@H](c4ccc(Cl)c(F)c4)[C@@H]4CCCN4)CC3)c21 [Example 28, (S)-2-(4-chloro-3-fluorophenyl)-1-(4-((5R,7R)-7-hydroxy-5-methyl-6,7-dihydro-5H-cyclopenta[d]pyrimidin-4-yl)piperazin-1-yl)-2-((S)-pyrrolidin-2-yl)ethanone] | < 1 |
